Assay results reported in US20150045330A1, “PROPHYLACTIC AND THERAPEUTIC DRUG FOR AMYOTROPHIC LATERAL SCLEROSIS AND METHOD OF SCREENING THEREFOR” (priority 2012, published 2015).
At least one structure is not confirmed: it was looked up by name or label, or the drawing left a doubt.

Tested on: ALS-MNs
Experiment: Arsenite-induced cell death of iPS cell-derived ALS motor neurons (HB9::GFP-positive cell number)
Format: cell-based, human
Conditions: 5 μM, added 24 hr before arsenite addition; FIG. 12D

## C=C(C)[C@@H](CC=C(C)C)C[C@@]12C[C@@H](CC=C(C)C)C(C)(C)[C@@](CC=C(C)C)(C(=O)C(C(=O)c3ccc(O)c(O)c3)=C1O)C2=O [garcinol]
  suppression of arsenite-induced cell death of ALS-MNs: did not show such action
